The target in this test is T1, ETS2 (UniProt P15036).
T1 sequence: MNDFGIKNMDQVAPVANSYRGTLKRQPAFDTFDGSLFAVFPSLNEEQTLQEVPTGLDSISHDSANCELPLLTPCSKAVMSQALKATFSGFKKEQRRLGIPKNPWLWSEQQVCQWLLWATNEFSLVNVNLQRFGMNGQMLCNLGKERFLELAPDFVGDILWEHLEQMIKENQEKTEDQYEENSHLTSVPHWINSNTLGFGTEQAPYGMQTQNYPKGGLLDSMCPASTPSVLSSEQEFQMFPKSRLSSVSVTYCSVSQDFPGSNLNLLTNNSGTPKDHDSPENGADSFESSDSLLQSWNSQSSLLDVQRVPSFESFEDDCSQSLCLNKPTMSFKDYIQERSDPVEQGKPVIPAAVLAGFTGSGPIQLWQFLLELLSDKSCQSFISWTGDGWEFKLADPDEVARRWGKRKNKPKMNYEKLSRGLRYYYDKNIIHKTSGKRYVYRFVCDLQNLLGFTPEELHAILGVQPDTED
Briefly: co-IP; Cal-62 and TPC-1 cells transfected with ETS2 overexpression plasmid or empty vector; lysed 48 h later in IP lysis solution with protease inhibitor; lysate incubated with anti-ETS2 antibody overnight at 4°C; Protein A/G agarose beads; washed three times with cold lysis buffer.

No constants are given. Whether binding was seen depends on the method and setting. In cells and extracts the contact can be indirect. Some entries that bind do so weakly or less than the wild type.

B1: ZMYND11 (protein, UniProt Q15326 1-602)
chain: MARLTKRRQADTKAIQHLWAAIEIIRNQKQIANIDRITKYMSRVHGMHPKETTRQLSLAVKDGLIVETLTVGCKGSKAGIEQEGYWLPGDEIDWETENHDWYCFECHLPGEVLICDLCFRVYHSKCLSDEFRLRDSSSPWQCPVCRSIKKKNTNKQEMGTYLRFIVSRMKERAIDLNKKGKDNKHPMYRRLVHSAVDVPTIQEKVNEGKYRSYEEFKADAQLLLHNTVIFYGADSEQADIARMLYKDTCHELDELQLCKNCFYLSNARPDNWFCYPCIPNHELVWAKMKGFGFWPAKVMQKEDNQVDVRFFGHHHQRAWIPSENIQDITVNIHRLHVKRSMGWKKACDELELHQRFLREGRFWKSKNEDRGEEEAESSISSTSNEQLKVTQEPRAKKGRRNQSVEPKKEEPEPETEAVSSSQEIPTMPQPIEKVSVSTQTKKLSASSPRMLHRSTQTTNDGVCQSMCHDKYTKIFNDFKDRMKSDHKRETERVVREALEKLRSEMEEEKRQAVNKAVANMQGEMDRKCKQVKEKCKEEFVEEIKKLATQHKQLISQTKKKQWCYNCEEEAMYHCCWNTSYCSIKCQQEHWHAEHKRTCRRKR
Regarding B1, the binding result was “binds”.

These data come from article PMC12431355.
